According to PubChem BioAssay AID2685 (National Center for Advancing Translational Sciences (NCATS), 2010):
This is one part of the list. Further columns of the screen follow, without active or inactive calls. Most of these compounds were active or inconclusive in the main read-out, so they are no random draw. Words in brackets tell the shape of the fitted curve; partial curves, single points and poor fits give uncertain potencies.

Experiment: qHTS Assay for Lipid Storage Modulators in Drosophila S3 Cells;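 on cell number change: cells counted by Cell Tracker Red CMTPX staining in the red channel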
Conditions: BODIPY lipid droplet fluorescence, 18-24 h; for cell number change: measured here: cell count max response, cells fed with added oleic acid
Method in brief: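 Drosophila S3 cells got compounds at several concentrations plus oleic acid (400 uM solution). Laser-scanning cytometry with 488 nm excitation read lipid droplets at 500-530 nm and cells at 575-640 nm. Percent activity was relative to 20 uM Triacsin C.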

[1] = measured here: lipid fluorescence (Fed channel) AC50, cells fed with added oleic acid
[2] = measured here: cell number channel AC50, cells fed with added oleic acid

SMILES | cell number change [%] | AC50 [1] | AC50 [2]
Cc1ccc(C(=O)NCc2ccco2)cc1S(=O)(=O)Nc1cccc(Cl)c1 | 13.2 | 6.51 µM [falling, single point] | –
Oc1ccccc1-c1nnc(-c2ccc(C(F)(F)F)cc2)o1 | 83.8 | – | 18.4 µM [rising, single point]
NNC(=O)c1sccc1OCc1cccc(C(F)(F)F)c1 | – | 6.51 µM [rising, single point] | –
CCN(CC)c1ccc(/C=N/NC(=O)Nc2nonc2N)cc1 | -77.8 | 23.1 µM [falling, partial curve] | 16.4 µM [falling, single point]
COC(=O)Cn1c(CN2CCc3ccccc3C2)nc2c1c(=O)n(C)c(=O)n2C | -118 | 23.1 µM [falling, single point] | 29.1 µM [falling, single point]
CC(C)(C)NCc1cc(Cl)ccc1OCc1ccccc1F | -23.3 | 29.1 µM [rising, single point] | –
O=C(N/N=C/C=C\c1cccc([N+](=O)[O-])c1)c1cccnc1 | 2.56 | – | –
Cc1nc(-c2cn[nH]c2-c2ccc(O)cc2O)cs1 | 8.71 | – | –
Cc1nn(CC(=O)N2CCOCC2)c(=O)c2c1sc1ccccc12 | 6.6 | 6.51 µM [rising, partial curve] | 6.51 µM [rising, single point]
O=C(c1ccccc1)c1ccc(OCC(O)CNCc2cccc(Cl)c2)cc1 (stereo not drawn) | -62.9 | – | 23.1 µM [falling, single point]
Cc1ccc(-c2cc(C(F)F)n3ncc(C(=O)N4CCN(c5ccccn5)CC4)c3n2)cc1 | -32.2 | – | 16.4 µM [falling, single point]
COc1ccc(/C=N/NC(=O)c2cc3c(ccc4ccccc43)o2)cc1OC | -27.2 | 6.51 µM [falling, single point] | 3.66 µM [falling, partial curve, poor fit]
CC(=O)c1cccc(N2C(=O)CC(N3CCN(S(=O)(=O)c4ccc(Cl)cc4)CC3)C2=O)c1 (stereo not drawn) | 6.27 | 29.1 µM [rising, single point] | –
Cc1nn(C)cc1C(=O)NNC(=S)Nc1ccc(Cl)cc1 | 41.8 | 0.58 µM [rising, single point] | 23.1 µM [rising, single point]
O=C(NCCc1ccccc1)c1ncn[nH]1 | 84 | – | 20.6 µM [rising, single point]
COCCn1c(=O)[nH]c2cc(C(=O)N3CCN(c4ccc(OC)cc4)CC3)ccc2c1=O | 0.952 | 6.51 µM [rising, single point] | –
CC(Oc1ccc(Br)cc1)C(=O)Nc1cc(Cl)ccc1N1CCN(C)CC1 (stereo not drawn) | -45.3 | 6.51 µM [falling, partial curve] | 5.17 µM [falling, partial curve]
O=C(COc1ccc(S(=O)(=O)N2CCCCC2)cc1)NC1CCCCC1 | – | 2.31 µM [falling, partial curve] | –
COC(=O)COc1cc(=O)oc2ccc(NS(=O)(=O)c3ccccc3)cc12 | -12.5 | 6.51 µM [rising, partial curve] | –
CN(C)S(=O)(=O)c1cccc(NC(=O)C2Cc3ccccc3CN2C(=O)c2ccccc2)c1 (stereo not drawn) | 25.2 | 3.26 µM [falling, full curve, poor fit] | –

Compounds listed so far containing a thiophene ring, fused or not, in the order listed:
SMILES | cell number change [%] | AC50 [1] | AC50 [2]
NNC(=O)c1sccc1OCc1cccc(C(F)(F)F)c1 | – | 6.51 µM [rising, single point] | –
Cc1nn(CC(=O)N2CCOCC2)c(=O)c2c1sc1ccccc12 | 6.6 | 6.51 µM [rising, partial curve] | 6.51 µM [rising, single point]

(cont.)

SMILES | cell number change [%] | AC50 [1] | AC50 [2]
C=CCNC(=O)/C(C#N)=C\c1cc(Cl)c(OCC)c(OC)c1 | – | 11.6 µM [falling, partial curve] | –
COC(=O)/C(=C\C(=O)c1ccc([N+](=O)[O-])cc1)Nc1ccc(OC)cc1 | -29.1 | 29.1 µM [falling, single point] | –
CCCn1nc(NC(=O)c2cccs2)c2cc3cc(C)ccc3nc21 | 22.6 | – | –
Cc1sc2nc(CN3CCC(C)CC3)nc(Cl)c2c1C | -43.5 | – | 29.1 µM [falling, single point]
O=c1[nH]c(/C=C/c2ccccc2Cl)c([N+](=O)[O-])c(=O)[nH]1 | 7.69 | 18.4 µM [falling, single point] | –
CC(c1ccccc1)C(CC(=O)O)C(=O)NC1CCCCC1 (stereo not drawn) | – | 0.259 µM [falling, single point] | –
CC(C(=O)OCC(=O)Nc1ccc(S(=O)(=O)N2CCCCC2)cc1)N1C(=O)c2ccccc2C1=O (stereo not drawn) | -29.6 | 18.4 µM [falling, partial curve] | 0.651 µM [falling, full curve, poor fit]
COc1ccccc1NC(=O)c1ccccc1NC(=O)c1ccccn1 | – | 29.1 µM [rising, single point] | –
COc1ccc(C(=O)Nc2ccccc2C(=O)Nc2ccccc2C(=O)O)cc1 | -22.3 | 3.26 µM [falling, full curve, poor fit] | –
O=C(Nc1ccc(N2CCCCC2)cc1)C1CCCN1S(=O)(=O)c1ccc(F)cc1 (stereo not drawn) | -23.6 | – | –
O=C(Cc1sc(-c2ccccc2)nc1-c1ccccc1)Nc1ccc(Cl)cc1 | 105 | 29.1 µM [rising, single point] | 23.1 µM [rising, single point]
C/C(=N\OCC(=O)Nc1ccc(Br)cc1)c1cccs1 | -24.9 | – | 0.651 µM [falling, full curve, poor fit]
N#CCC(=O)N/N=C/c1cn(Cc2ccccc2C#N)c2ccccc12 | 30.9 | – | 0.517 µM [rising, full curve, poor fit]
COC(=O)c1cc(Br)c(=O)n(CCC2=CCCCC2)c1 | 6.04 | 29.1 µM [rising, single point] | 2.06 µM [falling, partial curve]
COc1ccccc1NC(=O)c1sc2nc(N3CCOCC3)c3c(c2c1N)CCCC3 | -14.6 | 29.1 µM [falling, single point] | –
O=C(NC(=S)NNC(=O)c1cnccn1)c1ccc(Cl)cc1 | 39 | 6.51 µM [falling, single point] | 14.6 µM [rising, partial curve, poor fit]
Cc1c(NC(=O)c2cnc(Cl)c(Cl)c2)c(=O)n(-c2ccccc2)n1C | 16.5 | – | –
CC(=O)c1ccc(S(=O)(=O)NCC2(N3CCOCC3)CCCCC2)cc1 | 20.9 | 20.6 µM [rising, single point] | –
O=C1C(=O)c2ccc(-c3ccccc3)cc2-c2ccccc21 | -50.5 | 3.26 µM [falling, full curve] | 2.31 µM [falling, full curve]
Cn1cncc1C#Cc1ccc2cc(C(C)(C)O)oc(=O)c2c1 | -35.3 | 18.4 µM [rising, single point] | 25.9 µM [falling, single point]

Single records, as listed above.
O=C(Nc1ccc(N2CCCCC2)cc1)C1CCCN1S(=O)(=O)c1ccc(F)cc1 (stereo not drawn) in the list: cell number change [%]: -23.6
COC(=O)c1cc(Br)c(=O)n(CCC2=CCCCC2)c1 in the list: cell number change [%]: 6.04; AC50 [1]: 29.1 µM [rising, single point]; AC50 [2]: 2.06 µM [falling, partial curve]

The results go on.

SMILES | cell number change [%] | AC50 [1] | AC50 [2]
O=C1NC(c2ccccc2)CCO1 (stereo not drawn) | 12 | 29.1 µM [rising, single point] | –
CCc1nnc(NC(=O)c2cc(Cl)ccn2)s1 | -1.39 | – | –
CC1(C(=O)N2CCN(c3ccccc3)CC2)CC1(Cl)Cl (stereo not drawn) | -31.9 | 0.082 µM [falling, full curve, poor fit] | 0.082 µM [falling, full curve, poor fit]
O=C(CCc1c[nH]c2ccccc12)NC(Cc1c[nH]c2ccccc12)C(=O)O (stereo not drawn) | 21.6 | 29.1 µM [rising, single point] | –
CCS(=O)(=O)c1ccc(S(=O)(=O)CC)s1 | -2.27 | – | –
CCNC(=O)COC(=O)c1cc(C)n(-c2ccccc2)c1C | 12.3 | – | –
O=C(CSc1n[nH]c(-c2ccccc2Cl)n1)NC1CCCCC1 | -20 | 29.1 µM [falling, single point] | –
CC(NC(=S)NC(=O)c1ccccc1Br)c1ccccc1 (stereo not drawn) | -19 | 6.51 µM [rising, single point] | –
Cc1nc2c(-c3ccc(F)cc3)c(C)nn2c(C)c1CCC(=O)NCCN1CCOCC1 | -38.9 | 0.731 µM [falling, full curve] | 11.6 µM [falling, partial curve, poor fit]
O=C(O)c1ccc(OCCCCCCOC2CCCCO2)cc1 (stereo not drawn) | 21.9 | 25.9 µM [rising, single point] | –
COc1ccc(NC(=O)COC(=O)c2ccc(S(=O)(=O)N(C)c3ccccc3OC)cc2)c(OC)c1 | 62.5 | 6.51 µM [rising, partial curve, poor fit] | 32.6 µM [rising, partial curve, poor fit]
Cc1oc2c(CN3CCCCC3C)c(O)ccc2c(=O)c1-c1ccccc1 (stereo not drawn) | -6.94 | – | –
COCCn1c(SCC(=O)c2c(N)n(C3CC3)c(=O)[nH]c2=O)nnc1-c1cccc(C)c1 | -40.1 | 20.6 µM [falling, single point] | 18.4 µM [falling, single point]
O=C(CNS(=O)(=O)c1cccc2nsnc12)NCc1ccc(Cl)cc1 | 42.9 | – | 20.6 µM [rising, single point]
C=CCSc1nnc2c(n1)OC=Nc1ccc(Br)cc1-2 | -10.9 | 16.4 µM [falling, partial curve, poor fit] | –
CCOC(=O)C1CCN(C(=O)CCCNC(=O)Cn2cnc3sc(C)c(C)c3c2=O)CC1 | 17.1 | 6.51 µM [rising, partial curve, poor fit] | –
CCOC(=O)CSc1nnc2n(C3CCCCC3)c(=O)c3c4c(sc3n12)CCCC4 | 2.17 | – | –
Cc1sc2c(c1C)c(=O)n(-c1cccc(C(F)(F)F)c1)c(=O)n2CC(=O)NCc1ccco1 | 17.1 | – | –
CN(C)N1C(N)=C(C#N)C(c2ccccc2Cl)C2=C1CCCC2=O (stereo not drawn) | -13.9 | 29.1 µM [falling, partial curve] | –
